Reference: PubChem BioAssay AID493246 (Drosophila RNAi Screening Center, 2011)

Aim: 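Identify essential fly genes by loss of cell viability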 (primary screen)
System: Drosophila Kc and S2R+ cells
Reagent: long dsRNA against Drosophila genes
Read-out: 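Cell number per well after knock-down, printed as raw plate values; calls were based on per-plate z-scores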
Direction: Kc cell number and S2R+ cell number: higher = more cells remaining
Active means: 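Active when the per-plate z-score of cell number is 3 or more in the direction of fewer cells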
In all, the deposit lists about 21,000 reagents; this is an unselected part of those with a known target gene and a result. Over the whole deposit, 429 (2%) were called active. 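Values are raw and not normalised between plates; calls rest on per-plate z-scores that were not deposited.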 Reagents against one gene are numbered here. Names joined by + are all predicted targets of the reagent. The record does not give: the amount of reagent, the time to read-out.

no.	Gene	reagent	Kc cell number, rep 1	Kc cell number, rep 2	S2R+ cell number, rep 1	S2R+ cell number, rep 2	Outcome
1	CG12920	1	1.54e6	1.56e6	1.25e6	1.30e6	inactive
2	ND-20 (NADH dehydrogenase (ubiquinone) 20 kDa subunit)	1	6.08e5		7.81e5		inactive
3	Dscam2 (Down syndrome cell adhesion molecule 2)	1	1.40e6	1.48e6	9.88e5	1.11e6	inactive
4	Dscam2 (Down syndrome cell adhesion molecule 2)	2	1.61e6	1.52e6	1.21e6	1.28e6	inactive
5	Dscam2 (Down syndrome cell adhesion molecule 2)	3	1.53e6	1.41e6	1.10e6	1.20e6	inactive
6	Dscam2 (Down syndrome cell adhesion molecule 2)	4	1.58e6	1.39e6	1.18e6	1.27e6	inactive
7	CG16762	1	1.48e6	1.37e6	1.09e6	1.38e6	inactive
8	CG12057	1	1.63e6	1.72e6	1.07e6	1.24e6	inactive
9	sna (snail)	1	1.46e6	1.57e6	1.22e6	1.31e6	inactive
10	Roc1a (Regulator of cullins 1a)	1	1.36e6	1.43e6	7.03e5	8.17e5	inactive
11	Mrgn1 (Mahogunin ring finger 1)	1	7.04e5		9.25e5		inactive
12	CG14204	1	1.51e6	1.58e6	8.98e5	1.03e6	inactive
13	CG6041	1	1.52e6	1.48e6	1.03e6	1.16e6	inactive
14	Mppe (Metallophosphoesterase)	1	1.31e6	1.31e6	1.14e6	1.18e6	inactive
15	Taf7 (TBP-associated factor 7)	1	1.66e6	1.80e6	1.17e6	1.23e6	inactive
16	Gapdh2 (Glyceraldehyde 3 phosphate dehydrogenase 2)	1	1.37e6	1.41e6	1.07e6	1.15e6	inactive
17	mi (minus)	1	1.39e6	1.44e6	1.05e6	1.12e6	inactive
18	upd2 (unpaired 2)	1	1.74e6	1.82e6	1.19e6	1.33e6	inactive
19	CG4707	1	1.44e6	1.53e6	1.21e6	1.29e6	inactive
20	CG18596	1	1.47e6	1.58e6	1.10e6	1.18e6	inactive
21	CG12224	1	1.87e6	1.90e6	1.29e6	1.38e6	inactive
22	ec (echinus)	1	1.40e6	1.48e6	1.07e6	1.13e6	inactive
23	ec (echinus)	2	1.30e6	1.41e6	1.12e6	1.25e6	inactive
24	ec (echinus)	3	1.65e6	1.64e6	9.88e5	1.10e6	inactive
25	PGRP-SB2 (Peptidoglycan recognition protein SB2)	1	1.64e6	1.83e6	1.32e6	1.42e6	inactive
26	Decay (Death executioner caspase related to Apopain/Yama)	1	1.46e6	1.58e6	1.12e6	1.17e6	inactive
27	CG8135 + BBIP1	1	1.25e6	1.37e6	9.43e5	1.11e6	inactive
28	CG8135 + BBIP1	2	1.64e6	1.57e6	1.25e6	1.33e6	inactive
29	Achl (Achilles)	1	1.54e6	1.61e6	1.15e6	1.30e6	inactive
30	Nep6 (Neprilysin 6)	1	4.80e5		6.02e5		inactive
31	CG17380	1	1.54e6	1.72e6	1.13e6	1.18e6	inactive
32	Uba4 (Ubiquitin-like activating enzyme 4)	1	1.68e6	1.64e6	1.32e6	1.49e6	inactive
33	CG33109	1	1.42e6	1.25e6	1.05e6	1.07e6	inactive
34	sigmar (salivary glands marred)	1	1.38e6	1.45e6	1.11e6	1.24e6	inactive
35	RhoGEF3 (retired record)	1	1.62e6	1.78e6	1.10e6	1.15e6	inactive
36	RhoGEF3 (retired record)	2	1.36e6	1.13e6	1.05e6	1.27e6	inactive
37	CG10657	1	1.45e6	1.43e6	1.07e6	1.16e6	inactive
38	SmF (Small ribonucleoprotein particle protein SmF)	1	1.20e6	1.38e6	7.94e5	8.96e5	inactive
39	fs(1)M3 (female sterile (1) M3)	1	5.64e5		8.85e5		inactive
40	CG15252	1	1.63e6	1.49e6	1.03e6	1.18e6	inactive
41	Prosbeta2 (Proteasome beta2 subunit)	1	1.10e6	1.20e6	5.93e5	7.20e5	active
42	beta4GalT7 (beta-4-galactosyltransferase 7)	1	1.50e6	1.44e6	1.01e6	1.06e6	inactive
43	Mtr4 (Mtr4 helicase)	1	1.23e6	1.31e6	1.18e6	1.20e6	inactive
44	Hs3st-A (Heparan sulfate 3-O sulfotransferase-A)	1	1.01e6	1.16e6	6.56e5	6.89e5	inactive
45	Hs3st-A (Heparan sulfate 3-O sulfotransferase-A)	2	1.65e6	1.63e6	1.22e6	1.38e6	inactive
46	Hs3st-A (Heparan sulfate 3-O sulfotransferase-A)	3	1.63e6	1.72e6	1.21e6	1.51e6	inactive
47	CG11836	1	1.57e6	1.48e6	1.21e6	1.32e6	inactive
48	eIF1 (eukaryotic translation initiation factor 1)	1	1.14e6	1.13e6	8.72e5	1.08e6	inactive
49	Vps20 (Vacuolar protein sorting 20)	1	1.57e6	1.61e6	1.30e6	1.41e6	inactive
50	mthl7 (methuselah-like 7)	1	1.68e6	1.50e6	1.26e6	1.23e6	inactive
51	CG6790	1	1.56e6	1.67e6	1.36e6	1.33e6	inactive
52	Hex-C (Hexokinase C)	1	1.52e6	1.54e6	1.06e6	1.27e6	inactive
53	CG4267	1	1.42e6	1.51e6	9.88e5	1.11e6	inactive
54	HP1b (Heterochromatin Protein 1b)	1	1.59e6	1.63e6	1.02e6	1.16e6	inactive
55	tbrd-1	1	1.46e6	1.49e6	9.58e5	1.01e6	inactive
56	CG5177	1	1.25e6	1.42e6	6.64e5	4.73e5	inactive
57	CG14131	1	1.42e6	1.41e6	1.06e6	1.18e6	inactive
58	CG15909	1	1.65e6	1.73e6	1.31e6	1.36e6	inactive
59	CG14605	1	1.52e6	1.56e6	1.34e6	1.48e6	inactive

Not a retest: entries from further up.
no.	Gene	reagent	Kc cell number, rep 1	Kc cell number, rep 2	S2R+ cell number, rep 1	S2R+ cell number, rep 2	Outcome
20	CG18596	1	1.47e6	1.58e6	1.10e6	1.18e6	inactive
21	CG12224	1	1.87e6	1.90e6	1.29e6	1.38e6	inactive
22	ec (echinus)	1	1.40e6	1.48e6	1.07e6	1.13e6	inactive
23	ec (echinus)	2	1.30e6	1.41e6	1.12e6	1.25e6	inactive
24	ec (echinus)	3	1.65e6	1.64e6	9.88e5	1.10e6	inactive
25	PGRP-SB2 (Peptidoglycan recognition protein SB2)	1	1.64e6	1.83e6	1.32e6	1.42e6	inactive
